# Test results published in the supplement of paper PMC7666118.
# Amino acid sequences for entries named in this document (tags omitted). A change or cut given only in a name is not applied to a line headed by its entry.
# UniProt Q9NRY4: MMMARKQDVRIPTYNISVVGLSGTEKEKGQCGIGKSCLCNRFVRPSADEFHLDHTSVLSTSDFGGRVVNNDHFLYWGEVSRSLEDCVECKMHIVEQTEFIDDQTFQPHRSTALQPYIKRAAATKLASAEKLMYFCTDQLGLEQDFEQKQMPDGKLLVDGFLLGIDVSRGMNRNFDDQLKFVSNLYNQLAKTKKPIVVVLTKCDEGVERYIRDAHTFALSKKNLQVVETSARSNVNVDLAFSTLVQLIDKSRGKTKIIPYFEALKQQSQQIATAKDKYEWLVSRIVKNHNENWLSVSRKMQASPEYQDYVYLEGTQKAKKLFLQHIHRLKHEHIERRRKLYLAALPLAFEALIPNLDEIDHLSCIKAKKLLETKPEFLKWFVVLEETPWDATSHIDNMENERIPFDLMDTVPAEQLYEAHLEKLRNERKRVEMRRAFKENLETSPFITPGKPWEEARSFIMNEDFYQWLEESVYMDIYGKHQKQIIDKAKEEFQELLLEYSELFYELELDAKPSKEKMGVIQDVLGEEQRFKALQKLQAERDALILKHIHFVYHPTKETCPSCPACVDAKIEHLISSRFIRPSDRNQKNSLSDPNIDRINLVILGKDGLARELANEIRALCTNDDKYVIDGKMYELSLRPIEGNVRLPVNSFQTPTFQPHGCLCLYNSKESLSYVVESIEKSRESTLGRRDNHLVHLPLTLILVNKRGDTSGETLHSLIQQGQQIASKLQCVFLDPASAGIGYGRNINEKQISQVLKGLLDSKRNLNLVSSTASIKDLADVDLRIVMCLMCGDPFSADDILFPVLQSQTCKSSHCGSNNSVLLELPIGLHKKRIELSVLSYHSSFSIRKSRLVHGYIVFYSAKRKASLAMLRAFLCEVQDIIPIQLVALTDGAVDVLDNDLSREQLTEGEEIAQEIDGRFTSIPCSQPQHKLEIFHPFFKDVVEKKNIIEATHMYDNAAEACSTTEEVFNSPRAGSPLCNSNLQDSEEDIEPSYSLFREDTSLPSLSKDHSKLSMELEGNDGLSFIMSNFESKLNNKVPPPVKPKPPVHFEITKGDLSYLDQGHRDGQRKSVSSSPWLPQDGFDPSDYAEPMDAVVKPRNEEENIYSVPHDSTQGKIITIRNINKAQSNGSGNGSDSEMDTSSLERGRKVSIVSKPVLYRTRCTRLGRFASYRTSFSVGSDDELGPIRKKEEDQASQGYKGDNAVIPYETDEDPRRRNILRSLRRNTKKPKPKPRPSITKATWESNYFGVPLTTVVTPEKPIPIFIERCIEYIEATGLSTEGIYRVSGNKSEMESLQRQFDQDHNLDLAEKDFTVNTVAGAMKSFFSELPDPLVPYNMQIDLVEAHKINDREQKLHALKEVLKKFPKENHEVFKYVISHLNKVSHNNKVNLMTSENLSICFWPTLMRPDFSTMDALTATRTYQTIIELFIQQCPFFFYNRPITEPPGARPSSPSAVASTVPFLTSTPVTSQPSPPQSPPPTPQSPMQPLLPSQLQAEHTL
# UniProt Q8NBQ5: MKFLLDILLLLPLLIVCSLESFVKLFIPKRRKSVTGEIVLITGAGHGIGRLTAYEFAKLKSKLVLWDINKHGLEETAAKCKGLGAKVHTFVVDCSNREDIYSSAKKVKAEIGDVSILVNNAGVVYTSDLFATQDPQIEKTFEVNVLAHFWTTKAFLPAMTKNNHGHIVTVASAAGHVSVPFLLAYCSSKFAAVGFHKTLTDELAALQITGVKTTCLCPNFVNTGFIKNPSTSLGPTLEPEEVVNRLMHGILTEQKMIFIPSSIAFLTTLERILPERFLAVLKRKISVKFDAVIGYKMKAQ
# UniProt P78417: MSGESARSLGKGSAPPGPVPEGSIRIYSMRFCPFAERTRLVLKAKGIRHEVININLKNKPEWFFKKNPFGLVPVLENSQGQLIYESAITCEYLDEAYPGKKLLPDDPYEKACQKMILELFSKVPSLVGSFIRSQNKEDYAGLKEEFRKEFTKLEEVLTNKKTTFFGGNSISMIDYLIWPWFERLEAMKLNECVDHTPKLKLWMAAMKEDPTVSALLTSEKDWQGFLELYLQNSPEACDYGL
# UniProt Q9Y2Q3: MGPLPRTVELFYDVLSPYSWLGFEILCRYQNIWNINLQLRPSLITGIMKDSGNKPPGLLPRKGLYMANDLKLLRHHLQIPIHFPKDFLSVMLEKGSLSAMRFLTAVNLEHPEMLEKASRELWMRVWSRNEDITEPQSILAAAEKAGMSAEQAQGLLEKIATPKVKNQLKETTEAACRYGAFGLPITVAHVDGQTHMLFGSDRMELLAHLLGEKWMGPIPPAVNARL
# UniProt P49840: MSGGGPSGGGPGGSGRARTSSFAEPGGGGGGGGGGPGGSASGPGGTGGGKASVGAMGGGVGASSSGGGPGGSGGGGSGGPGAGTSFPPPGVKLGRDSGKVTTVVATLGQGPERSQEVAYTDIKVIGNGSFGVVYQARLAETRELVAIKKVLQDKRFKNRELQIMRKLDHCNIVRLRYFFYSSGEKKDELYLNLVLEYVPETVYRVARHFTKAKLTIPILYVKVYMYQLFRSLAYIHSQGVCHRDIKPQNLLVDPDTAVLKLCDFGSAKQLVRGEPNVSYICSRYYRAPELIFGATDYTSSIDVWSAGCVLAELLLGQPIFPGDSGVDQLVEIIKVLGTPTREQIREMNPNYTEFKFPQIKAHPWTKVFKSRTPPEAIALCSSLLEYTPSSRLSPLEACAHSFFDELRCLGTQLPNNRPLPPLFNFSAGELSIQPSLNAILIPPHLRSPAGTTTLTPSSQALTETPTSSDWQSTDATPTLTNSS
# UniProt P49590: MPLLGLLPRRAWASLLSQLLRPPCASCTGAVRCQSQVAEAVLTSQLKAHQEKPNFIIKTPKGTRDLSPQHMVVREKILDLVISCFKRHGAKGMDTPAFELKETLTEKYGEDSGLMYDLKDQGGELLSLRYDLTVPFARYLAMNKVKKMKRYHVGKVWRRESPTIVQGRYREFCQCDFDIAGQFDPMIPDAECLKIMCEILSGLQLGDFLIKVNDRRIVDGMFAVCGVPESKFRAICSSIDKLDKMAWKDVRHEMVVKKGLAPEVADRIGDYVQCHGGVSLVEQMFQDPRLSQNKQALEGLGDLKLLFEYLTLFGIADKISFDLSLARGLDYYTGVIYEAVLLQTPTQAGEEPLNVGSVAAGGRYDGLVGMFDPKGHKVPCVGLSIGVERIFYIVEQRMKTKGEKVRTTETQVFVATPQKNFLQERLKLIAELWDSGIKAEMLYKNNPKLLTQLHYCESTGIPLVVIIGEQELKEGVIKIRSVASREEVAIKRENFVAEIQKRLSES
# UniProt Q8N4P3, whole entry: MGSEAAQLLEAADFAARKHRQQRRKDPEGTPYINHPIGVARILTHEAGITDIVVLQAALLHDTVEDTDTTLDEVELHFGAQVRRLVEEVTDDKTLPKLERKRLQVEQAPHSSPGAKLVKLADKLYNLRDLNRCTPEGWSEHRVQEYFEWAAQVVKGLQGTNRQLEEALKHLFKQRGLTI
# UniProt Q9NQX3: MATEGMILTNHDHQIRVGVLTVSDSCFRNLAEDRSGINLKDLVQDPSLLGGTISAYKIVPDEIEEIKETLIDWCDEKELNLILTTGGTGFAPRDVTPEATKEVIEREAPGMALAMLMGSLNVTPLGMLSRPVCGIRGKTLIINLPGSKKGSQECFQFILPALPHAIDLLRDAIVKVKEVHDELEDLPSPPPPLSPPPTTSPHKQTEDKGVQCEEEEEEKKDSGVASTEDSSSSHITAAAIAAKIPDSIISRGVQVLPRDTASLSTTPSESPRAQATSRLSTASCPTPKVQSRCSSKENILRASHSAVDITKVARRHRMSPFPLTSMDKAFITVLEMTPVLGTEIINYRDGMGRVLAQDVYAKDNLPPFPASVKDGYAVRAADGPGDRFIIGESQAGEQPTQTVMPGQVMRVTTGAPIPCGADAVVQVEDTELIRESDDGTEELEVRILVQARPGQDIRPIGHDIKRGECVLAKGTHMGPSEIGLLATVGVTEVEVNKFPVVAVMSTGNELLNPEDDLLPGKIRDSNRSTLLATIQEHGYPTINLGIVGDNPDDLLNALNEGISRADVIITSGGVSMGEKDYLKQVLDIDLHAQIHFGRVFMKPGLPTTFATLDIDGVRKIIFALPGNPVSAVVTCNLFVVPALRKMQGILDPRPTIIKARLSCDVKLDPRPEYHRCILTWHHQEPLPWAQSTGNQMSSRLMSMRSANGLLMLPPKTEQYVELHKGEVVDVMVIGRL
# UniProt P07686: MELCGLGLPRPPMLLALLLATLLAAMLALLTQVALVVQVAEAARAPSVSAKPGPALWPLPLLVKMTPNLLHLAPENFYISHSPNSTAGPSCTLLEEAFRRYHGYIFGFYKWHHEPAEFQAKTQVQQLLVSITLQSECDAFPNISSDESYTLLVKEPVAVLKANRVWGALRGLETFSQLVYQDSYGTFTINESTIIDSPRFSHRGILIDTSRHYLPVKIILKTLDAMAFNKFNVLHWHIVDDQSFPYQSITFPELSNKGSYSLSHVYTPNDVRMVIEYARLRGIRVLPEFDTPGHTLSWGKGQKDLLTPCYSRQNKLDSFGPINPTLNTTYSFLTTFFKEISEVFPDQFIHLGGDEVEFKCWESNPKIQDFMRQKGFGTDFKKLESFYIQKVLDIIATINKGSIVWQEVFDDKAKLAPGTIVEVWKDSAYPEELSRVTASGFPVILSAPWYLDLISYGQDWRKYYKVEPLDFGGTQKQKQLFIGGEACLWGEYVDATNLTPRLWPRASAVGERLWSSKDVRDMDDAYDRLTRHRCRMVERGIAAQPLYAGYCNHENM
# UniProt Q9UKN8: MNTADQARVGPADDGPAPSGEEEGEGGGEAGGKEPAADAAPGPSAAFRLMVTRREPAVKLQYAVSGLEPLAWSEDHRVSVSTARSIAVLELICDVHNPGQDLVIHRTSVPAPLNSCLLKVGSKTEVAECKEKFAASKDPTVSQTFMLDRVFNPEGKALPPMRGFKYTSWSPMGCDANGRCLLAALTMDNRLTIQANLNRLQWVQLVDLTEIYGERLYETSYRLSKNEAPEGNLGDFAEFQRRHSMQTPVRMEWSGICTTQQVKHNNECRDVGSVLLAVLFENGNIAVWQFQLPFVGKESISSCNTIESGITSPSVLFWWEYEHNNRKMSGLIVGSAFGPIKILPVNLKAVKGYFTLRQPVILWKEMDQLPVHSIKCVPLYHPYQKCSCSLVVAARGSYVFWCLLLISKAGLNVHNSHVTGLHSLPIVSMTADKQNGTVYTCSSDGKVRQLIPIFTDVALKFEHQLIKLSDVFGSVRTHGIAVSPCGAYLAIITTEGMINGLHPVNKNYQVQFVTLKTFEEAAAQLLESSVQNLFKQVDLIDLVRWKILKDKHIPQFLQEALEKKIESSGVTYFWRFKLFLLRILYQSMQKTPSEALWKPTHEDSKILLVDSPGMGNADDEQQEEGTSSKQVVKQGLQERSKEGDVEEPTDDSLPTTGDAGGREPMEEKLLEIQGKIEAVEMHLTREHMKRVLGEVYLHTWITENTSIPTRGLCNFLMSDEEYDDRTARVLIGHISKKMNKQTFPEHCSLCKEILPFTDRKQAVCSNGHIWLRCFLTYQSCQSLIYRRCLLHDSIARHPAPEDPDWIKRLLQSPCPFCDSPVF
# UniProt Q14527: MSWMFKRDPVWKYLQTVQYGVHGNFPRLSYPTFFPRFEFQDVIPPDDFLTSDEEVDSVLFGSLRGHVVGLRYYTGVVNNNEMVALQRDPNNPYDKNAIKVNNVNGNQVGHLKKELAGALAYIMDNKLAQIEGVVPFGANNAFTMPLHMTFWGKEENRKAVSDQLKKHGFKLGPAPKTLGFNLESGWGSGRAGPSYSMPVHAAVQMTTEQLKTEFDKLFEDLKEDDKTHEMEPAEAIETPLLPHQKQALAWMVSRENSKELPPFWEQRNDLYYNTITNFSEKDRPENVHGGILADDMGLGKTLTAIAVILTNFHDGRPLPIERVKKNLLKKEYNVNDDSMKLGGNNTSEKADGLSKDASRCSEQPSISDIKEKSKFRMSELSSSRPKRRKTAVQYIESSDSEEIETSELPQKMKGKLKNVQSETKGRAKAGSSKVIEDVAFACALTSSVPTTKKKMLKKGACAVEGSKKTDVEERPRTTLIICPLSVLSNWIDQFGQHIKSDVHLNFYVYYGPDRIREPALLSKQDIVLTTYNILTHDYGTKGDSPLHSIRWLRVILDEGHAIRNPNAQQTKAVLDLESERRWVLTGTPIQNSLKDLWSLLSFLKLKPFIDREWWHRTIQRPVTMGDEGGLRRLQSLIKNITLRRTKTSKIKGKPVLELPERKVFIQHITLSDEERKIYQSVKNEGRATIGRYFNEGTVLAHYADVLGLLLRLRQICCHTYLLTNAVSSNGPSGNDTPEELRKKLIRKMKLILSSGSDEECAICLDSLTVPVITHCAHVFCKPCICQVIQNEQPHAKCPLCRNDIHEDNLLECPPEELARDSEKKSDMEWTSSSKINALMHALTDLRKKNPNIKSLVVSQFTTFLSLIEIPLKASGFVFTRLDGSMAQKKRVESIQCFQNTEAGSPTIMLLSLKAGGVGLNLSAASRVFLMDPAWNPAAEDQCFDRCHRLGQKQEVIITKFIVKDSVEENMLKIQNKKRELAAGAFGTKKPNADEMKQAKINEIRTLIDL
# The other results are listed elsewhere or left out.
# Compound: COc1ccc(Cn2ccc3cc(C)c(C(=O)NO)cc32)cc1
# Assay: dose-dependent thermal stabilisation call (2D-TPP, DLPTP, 10% FDR) (binary (1 = stabilised)); higher = stabilised by the compound
# Settings: system: HL-60 intact cells; concentration range 0.04-10 µM
# Experimental: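 2D thermal proteome profiling in intact HL-60 cells treated with BRD-3811 (0, 0.04, 0.29, 2, 10 uM) for 90 min at 37 C, then heated 3 min at one of 12 temperatures (42-63.9 C). Soluble protein was quantified by TMT10 MS. The value is the DLPTP call of the paper: dose-dependent thermal stabilisation over all temperatures at 10% FDR (F-test of a dose-response against a flat model); one experiment, one call per tested protein.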
row,Target,dose-dependent thermal stabilisation call
1,HNRNPL (UniProt P14866),inactive: 0
2,GRAMD4 (UniProt Q6IC98),inactive: 0
3,GRLF1 (UniProt Q9NRY4),inactive: 0
4,HDAC6 (UniProt Q9UBN7),inactive: 0
5,HBB (UniProt P68871),inactive: 0
6,GSK3B (UniProt P49841),inactive: 0
7,HSD17B11 (UniProt Q8NBQ5),inactive: 0
8,GSTO1 (UniProt P78417),active: 1
9,HEATR3 (UniProt Q7Z4Q2),inactive: 0
10,GSTK1 (UniProt Q9Y2Q3),inactive: 0
11,GYG1 (UniProt P46976),inactive: 0
12,GSK3A (UniProt P49840),inactive: 0
13,HIST1H2AD (UniProt P20671),inactive: 0
14,GSE1 (UniProt Q14687),inactive: 0
15,HINT1 (UniProt P49773),inactive: 0
16,HMGN2 (UniProt P05204),inactive: 0
17,HNRNPH3 (UniProt P31942),inactive: 0
18,HOOK3 (UniProt Q86VS8),inactive: 0

# In a second layout: results already given
row	Target	dose-dependent thermal stabilisation call
2	GRAMD4 (UniProt Q6IC98)	inactive: 0
3	GRLF1 (UniProt Q9NRY4)	inactive: 0
5	HBB (UniProt P68871)	inactive: 0
8	GSTO1 (UniProt P78417)	active: 1
9	HEATR3 (UniProt Q7Z4Q2)	inactive: 0
10	GSTK1 (UniProt Q9Y2Q3)	inactive: 0
12	GSK3A (UniProt P49840)	inactive: 0
13	HIST1H2AD (UniProt P20671)	inactive: 0
14	GSE1 (UniProt Q14687)	inactive: 0
18	HOOK3 (UniProt Q86VS8)	inactive: 0

# More records follow:

row,Target,dose-dependent thermal stabilisation call
1,GTF2H3 (UniProt Q13889),inactive: 0
2,GRB2 (UniProt P62993),inactive: 0
3,HDAC10 (UniProt Q969S8),inactive: 0
4,HARS2 (UniProt P49590),inactive: 0
5,HDDC3 (UniProt Q8N4P3),inactive: 0
6,GPHN (UniProt Q9NQX3),inactive: 0
7,HNRNPA2B1 (UniProt P22626),inactive: 0
8,HN1L,inactive: 0
9,HEXB (UniProt P07686),inactive: 0
10,HERC4 (UniProt Q5GLZ8),inactive: 0
11,GTF3C4 (UniProt Q9UKN8),inactive: 0
12,HCG_2004593,inactive: 0
13,HLTF (UniProt Q14527),inactive: 0
14,HLA-DRB1 (UniProt P01911),inactive: 0
15,GPR172A (UniProt Q9HAB3),inactive: 0
16,GRIPAP1 (UniProt Q4V328),inactive: 0
17,HELB (UniProt Q8NG08),inactive: 0
18,HDHD3 (UniProt Q9BSH5),inactive: 0
